Test results published in patent publication US20030105165A1, “Gap junctions and EDHF” (priority 2001, published 2003).
At least one compound was matched to its structure with a doubt left.

Assays:
[1] = system: rabbit iliac artery rings; experiment: EDHF-type relaxation of isolated rabbit iliac artery rings constricted with phenylephrine; assay type: cell-based
Procedure: Isolated Ring Preparations. Male New Zealand white rabbits (2-2.5 kg) were sacrificed with sodium pentobarbitone (120 mg/kg; i.v.) and the iliac artery removed and transferred to cold Holman's buffer of the following composition (mM): 120 NaCl, 5 KCl, 2.5 CaCl2, 1.3 NaH2PO4, 25 NaHCO3, 11 glucose, and 10 sucrose. […] Endothelium-intact rings were incubated for 40 min with N^G-nitro-L-arginine methyl ester (L-NAME, 300 μM) and indomethacin (10 μM) and following constriction with phenylephrine (PE) cumulative concentration-relaxation curves to ACh or A23187 were constructed. Some preparations were preincubated for 40 min with either 2′5′-dideoxyadenosine (2′5′-DDA, 200 μM), 3-isobutyl-1-methylxanthine (IBMX, 20 μM), 18α-GA (100 μM), glibenclamide (10 μM), the combination of charybdotoxin (100 nM) and apamin (300 nM), or the combination of charybdotoxin (100 nM), apamin (300 nM) and IBMX (20 μM). Concentration-response curves to ACh and A23187 were also constructed for endothelium-denuded rings in the absence/presence of IBMX (20 μM). […]
Statistical Analysis All data are given as mean±SEM, where n denotes the number of animals studied for each data point, and were compared by the Student's t-test for paired or unpaired data as appropriate. […] Concentration-response curves were assessed by one-way analysis of variance (ANOVA) followed by the Bonferroni multiple comparisons test.

[2] = system: sandwich preparations of rabbit iliac artery; experiment: 'Sandwich' bioassay preparations of iliac artery (endothelium-intact donor ring, denuded detector strip); assay type: cell-based
Text: ‘Sandwich’ preparations. Rings of iliac artery 2-3 mm wide were denuded of endothelium, cut into strips and pierced ˜2 mm from each end using a Monoject needle (0.9 mm×40 mm). These strips were introduced into the lumen of rings of endothelium-intact iliac artery 4-5 mm wide and the tissues sutured together. Composite preparations were then mounted in a Mulvany Multi Myograph (Danish Myo Technology) with the pierced denuded strips hooked onto the large vessel mountings. Tension was initially set at ˜0.25 g and readjusted during an equilibrium period of 1 h. The preparations were then incubated for 40 min with L-NAME (300 μM) and indomethacin (10 μM), constricted with PE (1 or 3 μM), and concentration-response curves constructed for ACh in the presence/absence of IBMX (20 μM), or A23187 in the presence/absence of IBMX (20 μM) or 2′5′DDA (200 μM).
Statistical Analysis All data are given as mean±SEM, where n denotes the number of animals studied for each data point, and were compared by the Student's t-test for paired or unpaired data as appropriate. P<0.05 was considered as significant. Concentration-response curves were assessed by one-way analysis of variance (ANOVA) followed by the Bonferroni multiple comparisons test.

[3] = system: smooth muscle cAMP levels; experiment: Radioimmunoassay of cAMP in iliac artery rings; assay type: cell-based, rabbit
Procedure: (§1) Radioimmunoassay. Multiple rings from the same artery were incubated in oxygenated Holmans buffer containing L-NAME (300 μM) and indomethacin (10 μM) for 40 min at 37° C. in the presence or absence of 18α-GA (100 μM). Rings were frozen in liquid N2 at time points up to 180 s following addition of ACh or A23187 and stored at −70° C. before extraction of cAMP or cGMP in 6% trichloroacetic acid, followed by neutralization with water saturated diethyl ether and subsequent radioimmunoassay (Amersham UK). PE (1 μM) was added 3 min before the initial control point and control experiments were performed with endothelium-denuded rings. Nucleotide levels were expressed relative to protein content (27).

cGMP levels = experiment: Radioimmunoassay of cGMP in iliac artery rings; assay type: cell-based, rabbit; details: in the presence of L-NAME and indomethacin
Procedure: as §1

SMILES: CC(=O)OCC[N+](C)(C)C [ACh, acetylcholine]
- Relaxation in endothelium-denuded rings incubated with IBMX, % of PE-induced tone ([1]; IBMX 20 μM): did not unmask relaxations
- Relaxation after endothelial denudation ([1]; endothelium-denuded rings): abolished
- EDHF-type relaxation in sandwich preparations in presence of IBMX ([2]; IBMX 20 μM): failed to evoke
- Maximal EDHF-type relaxation in sandwich preparations, % of PE-induced tone ([2]; L-NAME 300 μM + indomethacin 10 μM, no modulator): failed to evoke
- Time of peak in cAMP levels ([3]; agonist 3 μM, endothelium-intact rings, L-NAME 300 μM + indomethacin 10 μM): 15 to 30 s
- Change of cAMP level in endothelium-denuded preparations ([3]; endothelium-denuded, basal 3.97±0.49 pmol/mg protein): did not significantly increase
- Effect on cGMP levels (cGMP levels): unaltered
